Assay results reported in patent EP3222276B1, “PHARMACEUTICAL COMPOSITION FOR TREATING CANCER AND BIOMARKER FOR DRUG SCREENING” (National Defense Medical Center, priority 2014, dated 2016).
These are yes or no findings as the source states them, for the method shown. Binding seen in cells or lysates may run through a third protein. Some binding calls cover weakened binding; strength is not graded here.

Sequences of proteins named here, by UniProt entry; tags and fusion partners are left off. A change or cut given only in a name is not applied to a line headed by its entry.
UniProt P53355: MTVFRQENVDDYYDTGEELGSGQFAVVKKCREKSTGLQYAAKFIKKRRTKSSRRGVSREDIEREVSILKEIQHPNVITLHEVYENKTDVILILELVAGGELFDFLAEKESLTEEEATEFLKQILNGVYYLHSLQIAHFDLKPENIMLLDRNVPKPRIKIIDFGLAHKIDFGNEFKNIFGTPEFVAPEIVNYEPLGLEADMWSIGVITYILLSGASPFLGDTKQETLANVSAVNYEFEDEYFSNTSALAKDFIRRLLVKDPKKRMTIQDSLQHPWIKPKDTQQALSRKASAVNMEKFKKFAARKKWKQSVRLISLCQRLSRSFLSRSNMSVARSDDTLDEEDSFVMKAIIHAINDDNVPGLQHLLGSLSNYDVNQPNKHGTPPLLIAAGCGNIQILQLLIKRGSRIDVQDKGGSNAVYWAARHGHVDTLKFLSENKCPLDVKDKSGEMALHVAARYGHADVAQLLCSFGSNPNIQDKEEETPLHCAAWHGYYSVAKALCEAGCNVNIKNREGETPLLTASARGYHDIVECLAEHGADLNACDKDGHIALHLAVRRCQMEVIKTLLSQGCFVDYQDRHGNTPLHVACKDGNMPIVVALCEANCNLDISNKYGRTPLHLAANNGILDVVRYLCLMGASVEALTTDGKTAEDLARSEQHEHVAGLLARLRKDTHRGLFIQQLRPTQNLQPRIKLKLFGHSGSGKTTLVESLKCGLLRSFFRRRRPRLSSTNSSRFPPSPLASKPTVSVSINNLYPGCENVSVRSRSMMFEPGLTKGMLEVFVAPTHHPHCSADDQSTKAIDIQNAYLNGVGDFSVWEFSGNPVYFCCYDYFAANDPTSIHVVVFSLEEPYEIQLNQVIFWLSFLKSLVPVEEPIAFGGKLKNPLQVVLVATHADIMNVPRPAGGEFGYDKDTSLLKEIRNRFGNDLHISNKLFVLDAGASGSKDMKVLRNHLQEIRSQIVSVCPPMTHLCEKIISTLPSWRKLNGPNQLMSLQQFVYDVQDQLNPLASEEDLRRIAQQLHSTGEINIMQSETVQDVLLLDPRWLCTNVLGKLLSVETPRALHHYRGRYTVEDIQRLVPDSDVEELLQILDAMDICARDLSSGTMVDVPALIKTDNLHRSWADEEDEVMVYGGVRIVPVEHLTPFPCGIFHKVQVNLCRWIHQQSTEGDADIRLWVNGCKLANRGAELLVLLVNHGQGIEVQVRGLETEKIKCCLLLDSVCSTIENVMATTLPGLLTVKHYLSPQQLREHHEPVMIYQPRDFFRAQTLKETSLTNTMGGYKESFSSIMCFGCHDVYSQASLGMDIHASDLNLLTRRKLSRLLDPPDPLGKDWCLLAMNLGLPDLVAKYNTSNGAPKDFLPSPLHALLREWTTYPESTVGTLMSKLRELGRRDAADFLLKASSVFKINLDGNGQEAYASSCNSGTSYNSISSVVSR

Target: DAPK protein (endogenous, ACHN cells) (Homo sapiens (Human)) (UniProt P53355)
Assay: co-immunoprecipitation of endogenous proteins from ACHN cells, immunoblotting

Substance: c-Raf protein (endogenous, ACHN cells) (from UniProt P04049 1-648) (enzyme)
- binding: binds
